Results from the supplement of paper PMC12823440, “Inhibitors supercharge kinase turnover through native proteolytic circuits” (Nature, 2025).
Where a name gives a salt, the structure may show the parent alone. The list shows a part of the results. Hit calls seldom repeat between salt and free forms of one compound.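 In K562 cells expressing nanoluciferase-fused kinases, luminescence was recorded at 4 h intervals between 2 and 18 h, normalized as percent of control with DMSO at 100% and a positive control at 0%. A significant (2 sigma) signal drop marks a time point as decreased. The authors' rule for a hit is not shown and takes in more than the number of time points.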

The chains behind the UniProt entries cited, without tags or fusion partners. Where a name states a change or a piece, a line headed by the entry shows the natural chain unless it says otherwise.
UniProt P50613: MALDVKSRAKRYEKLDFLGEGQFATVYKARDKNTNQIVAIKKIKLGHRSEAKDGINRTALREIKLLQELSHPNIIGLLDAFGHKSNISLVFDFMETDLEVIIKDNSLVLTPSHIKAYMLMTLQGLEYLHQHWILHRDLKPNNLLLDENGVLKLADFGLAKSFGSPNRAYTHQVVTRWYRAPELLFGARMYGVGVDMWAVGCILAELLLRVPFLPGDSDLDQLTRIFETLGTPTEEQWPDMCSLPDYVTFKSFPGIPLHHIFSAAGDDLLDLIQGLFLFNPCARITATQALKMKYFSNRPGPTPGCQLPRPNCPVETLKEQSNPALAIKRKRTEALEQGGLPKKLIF
UniProt P50750, whole entry: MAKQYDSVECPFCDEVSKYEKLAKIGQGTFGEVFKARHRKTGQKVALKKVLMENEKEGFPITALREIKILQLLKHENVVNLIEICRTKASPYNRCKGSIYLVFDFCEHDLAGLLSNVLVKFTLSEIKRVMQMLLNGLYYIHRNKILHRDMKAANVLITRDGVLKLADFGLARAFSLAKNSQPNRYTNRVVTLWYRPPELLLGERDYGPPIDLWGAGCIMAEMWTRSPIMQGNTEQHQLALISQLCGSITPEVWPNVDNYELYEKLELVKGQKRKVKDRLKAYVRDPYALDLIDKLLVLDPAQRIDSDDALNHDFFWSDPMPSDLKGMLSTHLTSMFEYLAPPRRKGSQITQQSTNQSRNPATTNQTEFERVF
UniProt O96017, whole entry: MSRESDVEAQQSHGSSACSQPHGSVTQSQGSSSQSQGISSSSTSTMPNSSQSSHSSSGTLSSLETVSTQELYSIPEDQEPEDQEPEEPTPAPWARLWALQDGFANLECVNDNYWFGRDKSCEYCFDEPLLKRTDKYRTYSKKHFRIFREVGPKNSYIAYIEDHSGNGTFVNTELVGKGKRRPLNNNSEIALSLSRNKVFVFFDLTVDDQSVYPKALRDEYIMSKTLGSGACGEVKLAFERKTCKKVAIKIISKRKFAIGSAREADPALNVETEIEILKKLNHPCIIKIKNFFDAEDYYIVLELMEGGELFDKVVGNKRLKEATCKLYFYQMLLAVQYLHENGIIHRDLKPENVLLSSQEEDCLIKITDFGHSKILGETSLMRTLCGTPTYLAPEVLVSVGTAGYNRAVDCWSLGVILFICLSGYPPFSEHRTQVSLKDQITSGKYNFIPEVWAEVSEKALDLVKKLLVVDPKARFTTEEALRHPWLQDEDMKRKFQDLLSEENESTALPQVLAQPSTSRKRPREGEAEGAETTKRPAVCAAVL
UniProt P07333, whole entry: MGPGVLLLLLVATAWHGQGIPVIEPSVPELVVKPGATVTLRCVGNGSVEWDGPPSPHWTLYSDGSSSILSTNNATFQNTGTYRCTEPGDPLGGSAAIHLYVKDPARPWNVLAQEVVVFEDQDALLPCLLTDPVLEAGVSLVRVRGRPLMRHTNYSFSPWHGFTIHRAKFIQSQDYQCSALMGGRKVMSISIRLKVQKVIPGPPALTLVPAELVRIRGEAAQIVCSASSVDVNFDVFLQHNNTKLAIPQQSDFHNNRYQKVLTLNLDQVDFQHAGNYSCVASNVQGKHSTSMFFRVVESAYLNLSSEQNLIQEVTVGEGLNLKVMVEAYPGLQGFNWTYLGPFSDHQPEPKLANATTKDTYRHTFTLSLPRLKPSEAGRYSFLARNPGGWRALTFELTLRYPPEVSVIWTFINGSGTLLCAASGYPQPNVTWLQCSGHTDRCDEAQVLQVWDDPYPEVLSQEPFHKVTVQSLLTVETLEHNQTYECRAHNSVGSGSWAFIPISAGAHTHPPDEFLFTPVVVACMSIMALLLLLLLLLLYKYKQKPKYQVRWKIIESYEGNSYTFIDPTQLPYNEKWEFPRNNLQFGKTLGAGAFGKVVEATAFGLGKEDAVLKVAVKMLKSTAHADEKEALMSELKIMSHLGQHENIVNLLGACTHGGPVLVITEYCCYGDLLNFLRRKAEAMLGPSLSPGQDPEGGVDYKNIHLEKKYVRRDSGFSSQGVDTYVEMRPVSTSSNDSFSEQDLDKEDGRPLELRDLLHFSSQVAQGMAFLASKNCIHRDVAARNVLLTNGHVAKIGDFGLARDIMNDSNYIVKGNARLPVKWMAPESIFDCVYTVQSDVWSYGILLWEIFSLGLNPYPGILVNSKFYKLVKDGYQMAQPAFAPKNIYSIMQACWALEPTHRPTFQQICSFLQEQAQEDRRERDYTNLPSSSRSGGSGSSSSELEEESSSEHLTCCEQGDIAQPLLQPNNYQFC
UniProt P41240: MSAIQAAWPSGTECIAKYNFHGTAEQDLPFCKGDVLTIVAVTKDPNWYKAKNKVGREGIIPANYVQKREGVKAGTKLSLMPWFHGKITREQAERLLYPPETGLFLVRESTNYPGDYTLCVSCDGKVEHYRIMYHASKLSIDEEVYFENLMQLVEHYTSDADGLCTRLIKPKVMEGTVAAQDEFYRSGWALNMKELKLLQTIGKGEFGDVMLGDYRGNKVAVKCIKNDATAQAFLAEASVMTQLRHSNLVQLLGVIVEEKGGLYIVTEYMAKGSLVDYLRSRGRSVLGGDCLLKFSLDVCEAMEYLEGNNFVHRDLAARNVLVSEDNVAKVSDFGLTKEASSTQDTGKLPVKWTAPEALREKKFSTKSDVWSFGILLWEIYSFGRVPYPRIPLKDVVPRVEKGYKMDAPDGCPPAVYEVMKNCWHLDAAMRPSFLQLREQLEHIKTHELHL
UniProt P48729: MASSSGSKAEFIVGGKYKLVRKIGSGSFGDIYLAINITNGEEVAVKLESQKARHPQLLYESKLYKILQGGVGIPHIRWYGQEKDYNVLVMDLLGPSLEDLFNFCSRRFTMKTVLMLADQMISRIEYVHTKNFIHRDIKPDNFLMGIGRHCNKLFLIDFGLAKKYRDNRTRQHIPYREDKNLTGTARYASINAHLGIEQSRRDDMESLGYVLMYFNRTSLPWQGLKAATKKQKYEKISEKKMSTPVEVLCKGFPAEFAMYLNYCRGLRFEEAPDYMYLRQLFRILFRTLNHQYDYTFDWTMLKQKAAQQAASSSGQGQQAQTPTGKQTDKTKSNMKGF
UniProt P48730: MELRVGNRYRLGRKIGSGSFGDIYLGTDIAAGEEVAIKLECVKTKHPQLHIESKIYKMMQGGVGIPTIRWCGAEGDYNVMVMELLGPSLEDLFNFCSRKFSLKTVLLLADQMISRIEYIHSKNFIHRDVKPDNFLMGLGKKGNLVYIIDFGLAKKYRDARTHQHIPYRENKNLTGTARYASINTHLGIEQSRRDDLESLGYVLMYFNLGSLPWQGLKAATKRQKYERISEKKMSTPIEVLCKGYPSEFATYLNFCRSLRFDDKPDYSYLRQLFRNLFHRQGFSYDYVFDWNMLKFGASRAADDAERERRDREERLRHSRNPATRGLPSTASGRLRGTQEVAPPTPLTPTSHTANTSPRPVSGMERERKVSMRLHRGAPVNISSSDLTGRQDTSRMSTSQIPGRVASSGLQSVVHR
UniProt Q08345: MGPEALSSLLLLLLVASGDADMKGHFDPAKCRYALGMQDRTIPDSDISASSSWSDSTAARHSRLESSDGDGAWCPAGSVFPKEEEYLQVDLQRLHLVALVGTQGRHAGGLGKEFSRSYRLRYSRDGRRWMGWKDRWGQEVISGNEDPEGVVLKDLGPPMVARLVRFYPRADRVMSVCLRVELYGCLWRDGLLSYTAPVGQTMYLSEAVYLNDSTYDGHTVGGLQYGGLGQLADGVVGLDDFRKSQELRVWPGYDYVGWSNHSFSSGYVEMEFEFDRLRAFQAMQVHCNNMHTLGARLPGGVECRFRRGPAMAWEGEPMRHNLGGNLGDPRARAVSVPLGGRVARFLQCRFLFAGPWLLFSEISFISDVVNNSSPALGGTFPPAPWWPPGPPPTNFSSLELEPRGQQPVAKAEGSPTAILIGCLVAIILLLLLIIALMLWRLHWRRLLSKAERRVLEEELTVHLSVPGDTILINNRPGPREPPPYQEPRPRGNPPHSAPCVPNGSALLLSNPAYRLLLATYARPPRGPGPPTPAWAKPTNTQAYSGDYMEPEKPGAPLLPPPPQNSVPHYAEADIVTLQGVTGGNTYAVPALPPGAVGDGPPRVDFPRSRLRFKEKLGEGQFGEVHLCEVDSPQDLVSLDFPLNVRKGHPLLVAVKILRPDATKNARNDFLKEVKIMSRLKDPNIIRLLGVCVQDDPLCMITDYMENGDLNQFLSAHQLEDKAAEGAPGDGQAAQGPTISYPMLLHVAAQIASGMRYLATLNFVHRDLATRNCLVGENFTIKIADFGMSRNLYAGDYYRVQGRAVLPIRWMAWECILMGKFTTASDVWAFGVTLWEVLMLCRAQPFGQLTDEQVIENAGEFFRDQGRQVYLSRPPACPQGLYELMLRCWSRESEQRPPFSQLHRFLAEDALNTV
UniProt Q9Y463, whole entry, looked up: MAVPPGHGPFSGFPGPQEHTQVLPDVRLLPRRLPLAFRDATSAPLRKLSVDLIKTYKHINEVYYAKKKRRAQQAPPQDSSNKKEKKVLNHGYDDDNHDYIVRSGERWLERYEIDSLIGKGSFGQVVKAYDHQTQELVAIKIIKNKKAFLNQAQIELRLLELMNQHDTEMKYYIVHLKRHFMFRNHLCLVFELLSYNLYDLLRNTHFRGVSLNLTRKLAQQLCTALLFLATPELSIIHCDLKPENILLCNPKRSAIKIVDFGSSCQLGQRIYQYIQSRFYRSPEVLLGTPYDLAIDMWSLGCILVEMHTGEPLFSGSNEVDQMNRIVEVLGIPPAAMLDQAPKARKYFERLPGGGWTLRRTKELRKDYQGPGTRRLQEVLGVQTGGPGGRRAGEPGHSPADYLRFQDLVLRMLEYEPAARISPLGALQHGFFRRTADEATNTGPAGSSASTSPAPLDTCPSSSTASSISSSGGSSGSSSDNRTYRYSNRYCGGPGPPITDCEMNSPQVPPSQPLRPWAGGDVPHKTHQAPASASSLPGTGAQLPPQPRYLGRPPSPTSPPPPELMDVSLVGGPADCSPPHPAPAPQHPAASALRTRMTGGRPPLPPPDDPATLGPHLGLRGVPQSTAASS
UniProt Q92630: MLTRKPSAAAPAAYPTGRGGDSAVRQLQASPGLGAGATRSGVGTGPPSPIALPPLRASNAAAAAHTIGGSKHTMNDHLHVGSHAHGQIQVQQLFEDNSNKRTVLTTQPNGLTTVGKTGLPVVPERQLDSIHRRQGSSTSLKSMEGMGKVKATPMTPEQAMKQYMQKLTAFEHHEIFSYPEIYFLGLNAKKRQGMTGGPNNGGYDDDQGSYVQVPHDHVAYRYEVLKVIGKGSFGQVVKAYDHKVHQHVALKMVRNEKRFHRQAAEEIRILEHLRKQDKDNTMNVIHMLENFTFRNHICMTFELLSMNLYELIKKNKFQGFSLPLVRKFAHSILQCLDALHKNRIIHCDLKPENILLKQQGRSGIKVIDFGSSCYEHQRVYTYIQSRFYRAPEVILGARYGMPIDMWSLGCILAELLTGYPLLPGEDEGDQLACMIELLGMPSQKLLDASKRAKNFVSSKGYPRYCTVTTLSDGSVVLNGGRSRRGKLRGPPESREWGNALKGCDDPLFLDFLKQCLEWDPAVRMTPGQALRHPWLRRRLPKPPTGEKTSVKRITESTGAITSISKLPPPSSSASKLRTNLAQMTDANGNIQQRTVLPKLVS

Assays:
Assay in all cases: kinase-Nluc reporter destabilization hit call (1 = scored as downregulated) (binary); higher = compound decreases kinase abundance
Conditions in all cases: K562; 2-18 h
CDK7 = CDK7 (UniProt P50613)
CDK9 = CDK9 (UniProt P50750)
CHEK2 = CHEK2 (UniProt O96017)
CSF1R = CSF1R (UniProt P07333)
CSK = CSK (UniProt P41240)
CSNK1A1 = CSNK1A1 (UniProt P48729)
CSNK1D = CSNK1D (UniProt P48730)
DDR1 = DDR1 (UniProt Q08345)
DYRK1B = DYRK1B (UniProt Q9Y463)
DYRK2 = DYRK2 (UniProt Q92630)

Measured: kinase-Nluc reporter destabilization hit call

CC(C)n1c([C@H](C)Nc2ncnc(N)c2C#N)cc2cccc(-c3ccc(=O)n(C)c3)c2c1=O (10 µM)
inactive: CDK7 = 0 | CDK9 = 0 | CHEK2 = 0 | CSF1R 0 | CSK 0 | CSNK1A1 = 0 | CSNK1D 0 | DDR1 = 0 | DYRK1B 0 | DYRK2 = 0

COc1cc(-c2oc3cc(O)cc(O)c3c(=O)c2O)ccc1O [Isorhamnetin] (10 µM)
inactive: CDK7 = 0 | CDK9 = 0 | CHEK2 = 0 | CSF1R 0 | CSK 0 | CSNK1A1 = 0 | CSNK1D 0 | DDR1 = 0 | DYRK1B 0 | DYRK2 = 0

Cc1cc(C)cc(NC(N)=Nc2ccccc2C(F)(F)F)c1 (10 µM)
inactive: CDK7 = 0 | CDK9 = 0 | CHEK2 = 0 | CSF1R 0 | CSK 0 | CSNK1A1 = 0 | CSNK1D 0 | DDR1 = 0 | DYRK1B 0 | DYRK2 = 0

NC[C@@](O)(c1ccc(Cl)cc1)c1ccc(-c2cn[nH]c2)cc1 (10 µM)
active: DDR1 = 1
inactive: CDK7 = 0 | CDK9 = 0 | CHEK2 = 0 | CSF1R 0 | CSK 0 | CSNK1A1 = 0 | CSNK1D 0 | DYRK1B 0 | DYRK2 = 0

NC(=O)c1ccc(N(C(N)=O)c2c(F)cccc2F)nc1-c1ccc(F)cc1F (10 µM)
inactive: CDK7 = 0 | CDK9 = 0 | CHEK2 = 0 | CSF1R 0 | CSK 0 | CSNK1A1 = 0 | CSNK1D 0 | DDR1 = 0 | DYRK1B 0 | DYRK2 = 0

CNC(=O)c1cc2c(Oc3ccc(NC(=O)C4(C(=O)Nc5ccc(F)cc5)CC4)cc3)ccnc2cc1OC (2.5 µM)
inactive: CDK7 = 0 | CDK9 = 0 | CHEK2 = 0 | CSF1R 0 | CSK 0 | CSNK1A1 = 0 | CSNK1D 0 | DDR1 = 0 | DYRK1B 0 | DYRK2 = 0

O=c1[nH]ccc2nc(-c3ccc(CN4CCC(c5nc(-c6ccccn6)n[nH]5)CC4)cc3)c(-c3ccccc3)cc12 (10 µM)
inactive: CDK7 = 0 | CDK9 = 0 | CHEK2 = 0 | CSF1R 0 | CSK 0 | CSNK1A1 = 0 | CSNK1D 0 | DDR1 = 0 | DYRK1B 0 | DYRK2 = 0

CC(Cc1ccc(O)c(O)c1)C(C)Cc1ccc(O)c(O)c1 (stereo not given) [Nordihydroguaiaretic acid] (2.5 µM)
inactive: CDK7 = 0 | CDK9 = 0 | CHEK2 = 0 | CSF1R 0 | CSK 0 | CSNK1A1 = 0 | CSNK1D 0 | DDR1 = 0 | DYRK1B 0 | DYRK2 = 0

C=CC(=O)Nc1cc(Nc2nccc(-c3cn(C)c4ccccc34)n2)c(OC)cc1N(C)CCNC [AZ7550 Mesylate] (2.5 µM)
inactive: CDK7 = 0 | CDK9 = 0 | CHEK2 = 0 | CSF1R 0 | CSK 0 | CSNK1A1 = 0 | CSNK1D 0 | DDR1 = 0 | DYRK1B 0 | DYRK2 = 0

CC(C)n1c(=O)n(C)c2cnc3cc(F)c(-c4ccc(OCCCN5CCCCC5)nc4)cc3c21 (10 µM)
inactive: CDK7 = 0 | CDK9 = 0 | CHEK2 = 0 | CSF1R 0 | CSK 0 | CSNK1A1 = 0 | CSNK1D 0 | DDR1 = 0 | DYRK1B 0 | DYRK2 = 0

Cc1cccc(COc2cccc(/C=C3\C(=O)NN(c4ccccc4)C3=O)c2)c1 (10 µM)
inactive: CDK7 = 0 | CDK9 = 0 | CHEK2 = 0 | CSF1R 0 | CSK 0 | CSNK1A1 = 0 | CSNK1D 0 | DDR1 = 0 | DYRK1B 0 | DYRK2 = 0

Fetched by structure from the list above (2):
Cc1cccc(COc2cccc(/C=C3\C(=O)NN(c4ccccc4)C3=O)c2)c1 (10 µM)
inactive: CDK7 = 0 | CDK9 = 0 | CHEK2 = 0 | CSF1R 0 | CSK 0 | CSNK1A1 = 0 | CSNK1D 0 | DDR1 = 0 | DYRK1B 0 | DYRK2 = 0

O=c1[nH]ccc2nc(-c3ccc(CN4CCC(c5nc(-c6ccccn6)n[nH]5)CC4)cc3)c(-c3ccccc3)cc12 (10 µM)
inactive: CDK7 = 0 | CDK9 = 0 | CHEK2 = 0 | CSF1R 0 | CSK 0 | CSNK1A1 = 0 | CSNK1D 0 | DDR1 = 0 | DYRK1B 0 | DYRK2 = 0

Continued:

CC(C)CCN1c2nc(Nc3cc(F)c(O)c(F)c3)ncc2N(C)C(=O)C1C (stereo not given) (2.5 µM)
inactive: CDK7 = 0 | CDK9 = 0 | CHEK2 = 0 | CSF1R 0 | CSK 0 | CSNK1A1 = 0 | CSNK1D 0 | DDR1 = 0 | DYRK1B 0 | DYRK2 = 0

Cn1c2cc([S+](C)[O-])sc2c2cnn(Cc3cccc(N)c3)c(=O)c21 (stereo not given) (2.5 µM)
inactive: CDK7 = 0 | CDK9 = 0 | CHEK2 = 0 | CSF1R 0 | CSK 0 | CSNK1A1 = 0 | CSNK1D 0 | DDR1 = 0 | DYRK1B 0 | DYRK2 = 0

Nc1nc2c(nc(Br)n2[C@@H]2O[C@@H]3COP(=O)(O)O[C@H]3[C@H]2O)c(=O)[nH]1 [8-Bromo-cGMP (sodium)] (10 µM)
inactive: CDK7 = 0 | CDK9 = 0 | CHEK2 = 0 | CSF1R 0 | CSK 0 | CSNK1A1 = 0 | CSNK1D 0 | DDR1 = 0 | DYRK1B 0 | DYRK2 = 0

Nc1nc(N)c2nc(-c3cccc(O)c3)c(-c3cccc(O)c3)nc2n1 (10 µM)
inactive: CDK7 = 0 | CDK9 = 0 | CHEK2 = 0 | CSF1R 0 | CSK 0 | CSNK1A1 = 0 | CSNK1D 0 | DDR1 = 0 | DYRK1B 0 | DYRK2 = 0

CC(C)(C)Cc1[nH]nc2c1[C@@](C)(c1ccccc1)C1=C(CC(C)(C)CC1=O)N2 (10 µM)
inactive: CDK7 = 0 | CDK9 = 0 | CHEK2 = 0 | CSF1R 0 | CSK 0 | CSNK1A1 = 0 | CSNK1D 0 | DDR1 = 0 | DYRK1B 0 | DYRK2 = 0

Clc1ccc(C(c2ccc(Cl)cc2)[n+]2ccn(CC(OCc3ccc(Cl)cc3Cl)c3ccc(Cl)cc3Cl)c2)cc1 (stereo not given) [Calmidazolium chloride] (2.5 µM)
inactive: CDK7 = 0 | CDK9 = 0 | CHEK2 = 0 | CSF1R 0 | CSK 0 | CSNK1A1 = 0 | CSNK1D 0 | DDR1 = 0 | DYRK1B 0 | DYRK2 = 0

CNC(=O)c1ccc2c(C(=Nc3cccc(CN(C)C)c3)c3ccccc3)c(O)[nH]c2c1 [MEK inhibitor] (10 µM)
inactive: CDK7 = 0 | CDK9 = 0 | CHEK2 = 0 | CSF1R 0 | CSK 0 | CSNK1A1 = 0 | CSNK1D 0 | DDR1 = 0 | DYRK1B 0 | DYRK2 = 0

CCC(=O)Nc1cccc(Oc2nc(Nc3ccc(N4CCN(C)CC4)cc3OC)ncc2Cl)c1 (10 µM)
inactive: CDK7 = 0 | CDK9 = 0 | CHEK2 = 0 | CSF1R 0 | CSK 0 | CSNK1A1 = 0 | CSNK1D 0 | DDR1 = 0 | DYRK1B 0 | DYRK2 = 0

N#Cc1ccc(-c2cnc3ccc(-c4ccc(C(=O)N5CCOCC5)cc4)cn23)cc1 (10 µM)
inactive: CDK7 = 0 | CDK9 = 0 | CHEK2 = 0 | CSF1R 0 | CSK 0 | CSNK1A1 = 0 | CSNK1D 0 | DDR1 = 0 | DYRK1B 0 | DYRK2 = 0

N#Cc1cnc2c(Cl)cc(NCc3cn(CCN4CCCCCC4)nn3)cc2c1Nc1ccc(F)c(Cl)c1 [Cot inhibitor-1] (10 µM)
inactive: CDK7 = 0 | CDK9 = 0 | CHEK2 = 0 | CSF1R 0 | CSK 0 | CSNK1A1 = 0 | CSNK1D 0 | DDR1 = 0 | DYRK1B 0 | DYRK2 = 0

COc1cc2c(cc1O)C[C@H]1c3cc(O)c(OC)cc3CC[N@@+]1(C)C2 [Phellodendrine] (10 µM)
inactive: CDK7 = 0 | CDK9 = 0 | CHEK2 = 0 | CSF1R 0 | CSK 0 | CSNK1A1 = 0 | CSNK1D 0 | DDR1 = 0 | DYRK1B 0 | DYRK2 = 0

COc1ccc(S(=O)(=O)Nc2cc(-c3c(O)ccc4ccccc34)c(O)c3ccccc23)cc1 (10 µM)
inactive: CDK7 = 0 | CDK9 = 0 | CHEK2 = 0 | CSF1R 0 | CSK 0 | CSNK1A1 = 0 | CSNK1D 0 | DDR1 = 0 | DYRK1B 0 | DYRK2 = 0

COc1cc2ncnc(Nc3cccc(I)c3)c2cc1OC (2.5 µM)
inactive: CDK7 = 0 | CDK9 = 0 | CHEK2 = 0 | CSF1R 0 | CSK 0 | CSNK1A1 = 0 | CSNK1D 0 | DDR1 = 0 | DYRK1B 0 | DYRK2 = 0

COc1cc2c(cc1Nc1ncc(C(N)=O)c(Nc3c(F)cccc3C(F)(F)F)n1)CN(C)CC2 (2.5 µM)
inactive: CDK7 = 0 | CDK9 = 0 | CHEK2 = 0 | CSF1R 0 | CSK 0 | CSNK1A1 = 0 | CSNK1D 0 | DDR1 = 0 | DYRK1B 0 | DYRK2 = 0

O=c1cc(-c2ccccc2)oc2cc(O[C@@H]3O[C@H](CO[C@@H]4O[C@H](CO)[C@@H](O)[C@H](O)[C@H]4O)[C@@H](O)[C@H](O)[C@H]3O)c(O)c(O)c12 [Oroxin B] (10 µM)
inactive: CDK7 = 0 | CDK9 = 0 | CHEK2 = 0 | CSF1R 0 | CSK 0 | CSNK1A1 = 0 | CSNK1D 0 | DDR1 = 0 | DYRK1B 0 | DYRK2 = 0

O=C1NC(=O)/C(=C\c2c[nH]c(=O)c(-c3ccc(N4CCNCC4)nc3)c2)S1 [Protein kinase inhibitors 1 hydrochloride] (10 µM)
inactive: CDK7 = 0 | CDK9 = 0 | CHEK2 = 0 | CSF1R 0 | CSK 0 | CSNK1A1 = 0 | CSNK1D 0 | DDR1 = 0 | DYRK1B 0 | DYRK2 = 0
